Reference: PubChem BioAssay AID2417 (National Center for Advancing Translational Sciences (NCATS), 2010)
The campaign covered roughly 140,000 compounds. About 4,300 (3.1%) were called active. The inconclusive results got no clear call from the source; some entries with a clear call stand among them for comparison.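 Rule for the calls: active = readout at or below -70, meaning at least 70% loss of cells showing the perinucleolar compartment, a nuclear body marking cancer cells; inconclusive = readout between -30 and a set limit; inactive = the rest.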

Test: High Content Assay for Compounds that inhibit the Assembly of the Perinucleolar Compartment;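 note: plate controls were DMSO wells for no effect and camptothecin positive control wells for full effect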
Conditions: PC3M PTB-GFP, PNC prevalence imaging, 16 h; at 10 µM; active compounds read low
Summary of the method: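 Read-out is percentage of cells bearing a perinucleolar compartment, from automated 20x imaging of fixed, Hoechst-stained PC3M PTB-GFP cells. Cells were seeded 4 h, then exposed 16 h to compound (23 nl of library stock) in duplicate plates.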

| Structure (SMILES) | activity change (PNC), negative = inhibition |
| --- | --- |
| CCC(C)Oc1cccc(OCCCCN2C(=O)NC(C)(C)C2=O)c1 (stereo unspecified) | active: -95.9% |
| O=C(NCc1ccco1)C(c1ccco1)N(CCc1ccccc1)C(=O)Cn1nnc2ccccc21 (stereo unspecified) | inconclusive: -51.9% |
| CCOc1cc2[nH]c(=S)n(CCCN3CCOCC3)c(=O)c2cc1OCC | inconclusive: -45% |
| Cc1nc2ccc(NC(=O)NCCCO)cc2s1 | inconclusive: -34.3% |
| CC(C)(C)c1nnc(NC(=O)Cc2ccccc2[N+](=O)[O-])s1 | inconclusive: -36% |
| COc1ccccc1NC(=O)Cc1nn(C)c(=O)c2ccccc12 | inconclusive: -46.1% |
| Cc1cc(C)n(CC(=O)N2c3ccccc3Sc3ccccc32)n1 | inconclusive: -40.2% |
| CC(=O)c1cc(-c2ccccc2)n(CCC(=O)NCc2cccs2)c1C | inconclusive: -59.4% |
| COc1cccc(C2C(C(=O)c3cccs3)=C(O)C(=O)N2CCN(C)C)c1OC (stereo unspecified) | inconclusive: -40.2% |
| COc1cc(C2C3C(C)N(C)C(=O)N(C)C3N(C)C(=O)N2C)ccc1O (stereo unspecified) | active: -100% |
| COc1cc(/C=N/NC(=O)CNC(=O)c2ccccc2)ccc1OC(=O)c1cccs1 | inconclusive: -36.9% |
| CNS(=O)(=O)c1ccc(Cl)nc1 | inactive: 17.2% |
| CCCCC12CN3CCN(CC(C3)/C1=N\NC(=O)c1ccccc1N)C2 | inconclusive: -33.9% |
| COc1ccc(-c2nc(CS(=O)CC(=O)N3CCCC3)c(C)o2)cc1 (stereo unspecified) | inconclusive: -57% |
| O=C1CCCC(O)=C1C=Nc1ccc(O)cc1 | inconclusive: -32.3% |
| Cc1nnn(C23CC4CC(CC(C(=O)NN)(C4)C2)C3)n1 | active: -114% |
| N/C(=N\OC(=O)CCc1ccccc1)c1ccc(Br)cc1 | inconclusive: -49% |
| COc1ccc(C)c(S(=O)(=O)Nc2ccc(OCC(=O)O)cc2)c1 | inactive: -0.272% |
| COc1ccc(C(c2sc3nc(C)nn3c2O)N2CCc3ccccc3C2)cc1 (stereo unspecified) | inactive: 20.5% |
| Cc1cccc(C)c1NC(=S)NC(C)CCc1ccccc1 (stereo unspecified) | active: -82.3% |
| Cc1ccc(CSc2ncnc3c2cnn3-c2ccccc2)cc1 | inconclusive: -60.6% |
| CS(=O)(=O)N(CC(=O)Nc1ccc2c(c1)OCO2)Cc1ccccc1 | inconclusive: -45.6% |
| Cc1c(NC(=O)c2ccc(N3CCCC3)c([N+](=O)[O-])c2)cccc1-c1nc2ccccc2s1 | inconclusive: -74.6% |

A draw from above in order of molecular weight, smallest number first:

| Structure (SMILES) | activity change (PNC), negative = inhibition |
| --- | --- |
| O=C1CCCC(O)=C1C=Nc1ccc(O)cc1 | inconclusive: -32.3% |
| COc1ccccc1NC(=O)Cc1nn(C)c(=O)c2ccccc12 | inconclusive: -46.1% |
| COc1ccc(C)c(S(=O)(=O)Nc2ccc(OCC(=O)O)cc2)c1 | inactive: -0.272% |

(cont.)

| Structure (SMILES) | activity change (PNC), negative = inhibition |
| --- | --- |
| O=C(CCl)NC(=O)NC12CC3CC(CC(C3)C1)C2 | inactive: 28.8% |
| S=C(N=Nc1ccccc1)NNc1ccccc1 | inactive: -23.9% |
| Cc1cccc(Nc2nc(NCCCN3CCOCC3)nc(N)c2[N+](=O)[O-])c1 | inconclusive: -31.7% |
| Cc1ccc(Nc2nc(N)nc(CN3CCN(C(=O)c4ccco4)CC3)n2)cc1Cl | inactive: -4.79% |
| COc1ccc(/C=N/n2cnc3scc(-c4cccs4)c3c2=O)cc1OC | inconclusive: -61.8% |
| CCC1c2ccc(C)n2CCN1C(=O)Nc1ccccc1OC (stereo unspecified) | inconclusive: -40.9% |
| CCN(CC)c1ccc(NC(=O)CSc2nc3ccccc3c(=O)[nH]2)cc1 | inconclusive: -41.5% |
| CC1(C)Cc2c(C#N)c(SCC(=O)c3ccccc3)nc(N3CCOCC3)c2CO1 | inconclusive: -36.2% |
| COc1ccc(N=NC2=C(O)CC(C)(C)CC2=O)cc1 | inactive: 8.77% |
| CSc1nc(-c2ccc(F)cc2)cc(=O)[nH]1 | inconclusive: -56.2% |
| CCCn1c(-c2ccc(F)cc2)n[nH]c1=S | active: -121% |
| N#Cc1cc2ccccc2nc1SCC(=O)Nc1ccccc1N1CCOCC1 | inconclusive: -37.3% |
| Clc1ccc(-c2csc(N/N=C/c3ccc4c(c3)OCO4)n2)cc1 | inactive: 41.5% |
| COc1ccc(-n2[nH]c(C)cc2=O)cc1 | inconclusive: -39.5% |
| COc1ccc(NS(=O)(=O)c2cccc(NC(=O)CCC(=O)c3cccs3)c2)cc1 | inconclusive: -69.4% |
| COc1ccc(CCNC(=O)C(=O)NCC2CCCO2)cc1 (stereo unspecified) | inconclusive: -43.5% |
| CCOc1cc(NC(=S)Nc2ccccc2)c(OCC)cc1NC(=O)c1ccc(OC)cc1 | inconclusive: -36% |
| COCCn1nnnc1CN(CCc1ccccc1)Cc1cc2ccc(C)cc2[nH]c1=O | inconclusive: -33.4% |
| CC(C)(C)NC(=O)c1ccc(NC(=O)C2COc3ccccc3O2)cc1 (stereo unspecified) | inconclusive: -39.1% |
| CCN(CC)c1ccc(/C=N/Nc2nc(C)cc(C)n2)c(O)c1 | inconclusive: -71.3% |
| Cc1onc(-c2ccccc2)c1C(=O)N/N=C(\N)COc1ccc(Cl)cc1 | inconclusive: -53.6% |
| CCOC1(C(F)(F)F)NC(=O)N(Cc2ccc(OC)cc2)C1=O (stereo unspecified) | inactive: -5.99% |
| CC1CCN(C(=O)Cn2cc(C(=O)C3CC3)c3ccccc32)CC1 | active: -103% |

| Structure (SMILES) | activity change (PNC), negative = inhibition |
| --- | --- |
| Cc1ccc2cc3cc(C(=O)NCCCN4CCCCCC4)oc3nc2c1 | inconclusive: -44% |
| Cc1ccccc1OCCCCn1cnc2ccccc21 | inactive: -25.5% |
| CN(C1=C(N2CCCCC2)C(=O)c2ccccc2C1=O)c1ccccc1 | inconclusive: -51.3% |
| Cc1ccnc2nc(C(=O)OCCOc3ccccc3)nn12 | inconclusive: -37.2% |
| Cc1ccc(/C=N/Nc2cccc3cccnc23)c(O)c1 | inactive: 22.4% |
| Cn1c(SCC(=O)c2ccc3c(c2)OCCO3)nnc1C1CC1 | inconclusive: -63.4% |
| Cc1cccc(CN2C(=O)N/C(=C/c3cc(C)n(-c4ccccn4)c3C)C2=O)c1 | inactive: -28.8% |
| COc1ccc(CNc2nc(-c3ccccc3)nn2C(=O)c2ccc([N+](=O)[O-])cc2)cc1 | inactive: -18% |
| Cc1cc(=O)oc2c(N)c(O)ccc12 | inconclusive: -33.5% |
| Cc1csc2ncc(C(=O)Nc3cccc(C(F)(F)F)c3)c(=O)n12 | inconclusive: -59.6% |
| COC(=O)C1=C(C)N(C)C(C)=C(C(=O)OC)C1c1cccc(Br)c1 | inactive: 20% |
| CN(C)CCN1C(=O)C(O)=C(C(=O)c2cc3ccccc3o2)C1c1cccc(Br)c1 (stereo unspecified) | inactive: -6.24% |
| CCOC(=O)c1cnc2ccc(Br)cc2c1NCC(C)O (stereo unspecified) | inconclusive: -38.5% |
| CC1Nc2nc(N(C)C)[nH]c(=O)c2NC1C (stereo unspecified) | inactive: -13% |
| CN(C)CCN1C(=O)c2oc3ccc(F)cc3c(=O)c2C1c1ccncc1 (stereo unspecified) | inconclusive: -36.4% |
| O=[N+]([O-])c1ccccc1-c1cc(-c2cc(Cl)ccc2O)n[nH]1 | inactive: 51.2% |
| COC(=O)c1ccc2c(c1)N(Cc1ccccc1F)C(=O)c1ccccc1S2=O (stereo unspecified) | inconclusive: -61.9% |
| C#CCOCCOCCOCCNc1nc(N2CCN(C(=O)Cn3cc(CC(C)O)nn3)CC2)nc(N2CCN(C(=O)[C@H](C)n3cc(CCCN=C(N)N)nn3)CC2)n1 (stereo partly specified) | inconclusive: -43.5% |
| CCn1nnnc1SCC(=O)N1CCOCC1 | inactive: 29.9% |
| O=c1cc(CSc2ccccn2)c2ccccc2[nH]1 | inconclusive: -60.2% |
| CCc1nnc(NC(=O)CSc2nc3c(c(=O)n2CC)SC(C)C3)s1 (stereo unspecified) | inconclusive: -40.2% |
| O=C(CN1C(=O)C2(OCCCO2)c2ccccc21)NCCc1ccccc1 | inactive: 16.1% |
| Cc1cc(C(=O)NCCN2C(=O)S/C(=C\c3cccs3)C2=O)ccc1[N+](=O)[O-] | inactive: -27.1% |

2 compounds drawn at random from the list so far:

| Structure (SMILES) | activity change (PNC), negative = inhibition |
| --- | --- |
| CCC(C)Oc1cccc(OCCCCN2C(=O)NC(C)(C)C2=O)c1 (stereo unspecified) | active: -95.9% |
| O=C(CN1C(=O)C2(OCCCO2)c2ccccc21)NCCc1ccccc1 | inactive: 16.1% |

Additional compounds.

| Structure (SMILES) | activity change (PNC), negative = inhibition |
| --- | --- |
| Cc1sc2nc(CN(Cc3cccs3)C(=O)NC3CCCCC3)[nH]c(=O)c2c1C | inconclusive: -50.2% |
| CN1CCc2c(c3c(n2C)CCN(C)C3c2ccc(F)cc2)C1c1ccc(F)cc1 (stereo unspecified) | inconclusive: -52.9% |
| COc1ccccc1C(=O)Nc1ccc(C2=NNC(=O)CC2C)cc1 (stereo unspecified) | active: -114% |
| COc1ccc(S(=O)(=O)N(CC(=O)Nc2cc(C)on2)Cc2ccccc2)cc1 | inactive: -0.0988% |
| CCOC(=O)c1c(C)[nH]c(C2=NNC(=Nc3ccc(OCC)cc3)SC2)c1C | inactive: 65.4% |
| CC(C)OC(=O)c1cc2c(ccn2C)n1CC(=O)N(Cc1ccccc1)c1ccccc1 | inconclusive: -73.4% |
| O=C(CCS(=O)(=O)Cc1ccccc1)N1CCN(c2ccccc2)CC1 | inactive: 8.02% |
| Cc1ccc(OCCCC(=O)N2CCOCC2)cc1 | inconclusive: -31.3% |
| Cc1ccc(-n2nc(-c3ccc(N)cc3)cc2N)cc1 | inactive: -22.2% |
| CC(OC(=O)c1nsc(Cl)c1Cl)C(=O)NCc1cccs1 (stereo unspecified) | inconclusive: -44.4% |
| CCOC(=O)C1=C(c2ccccc2)N=C2SCC(=O)N2C1c1ccc2c(c1)OCO2 (stereo unspecified) | inconclusive: -32.5% |
| c1ccc(-c2oc3ncnc(NCCCn4ccnc4)c3c2-c2ccccc2)cc1 | inconclusive: -55.4% |
| COc1ccc(C2CC(c3ccc(C)o3)=NN2C(C)=O)cc1 (stereo unspecified) | inconclusive: -34.9% |
| CCCCc1nc2ccccc2c(NC(=O)CNC(C)(C)C)c1CCC | inactive: 35.7% |
| CCn1c(CC(=O)Nc2cccc(OC)c2)nnc1SCC(=O)N1CCN(c2ccccc2)CC1 | active: -85.4% |
| CCOc1ccc(C(c2c(C)[nH][nH]c2=O)c2c(C)[nH][nH]c2=O)cc1OCC | inconclusive: -47.9% |
| CCCCOC(=O)N1CCOCCOCCN(C(=O)OCCCC)CCOCCOCC1 | inconclusive: -43.6% |
| COC(=O)CC1Oc2ccc(C)cc2NC1=O (stereo unspecified) | inconclusive: -34.2% |
| COC(=O)CC1SC(=O)NC1=Nc1ccc(OC)cc1 (stereo unspecified) | inconclusive: -56.5% |
| Cc1ccc(OC(=O)Cn2c(C(F)(F)F)nc3ccccc32)cc1 | inconclusive: -40.7% |
| Cc1nn(C)cc1/C=C/C(=O)c1ccccc1 | inactive: 12.6% |
| CCOC(=O)COc1ccc(S(=O)(=O)c2ccc(OCC(=O)OCC)cc2)cc1 | inactive: 30.1% |
